Laboratory results: PMC3699650, “Structural Insights into the Abscisic Acid Stereospecificity by the ABA Receptors PYR/PYL/RCAR” (PLoS ONE, 2013)
Results are given in words; binding and its absence hold for the method and conditions named. Where a sequence is shown, tags or fusion partners need not be part of it.

Target: PYL5 (6×His-tagged) (Arabidopsis thaliana) (UniProt Q9FLB1)
Assay: SEC; size exclusion chromatography of purified PYL9 and PYL5; both purified

B1: PYL5 (6×His-tagged) (receptor, UniProt Q9FLB1 1-203)
chain: MRSPVQLQHGSDATNGFHTLQPHDQTDGPIKRVCLTRGMHVPEHVAMHHTHDVGPDQCCSSVVQMIHAPPESVWALVRRFDNPKVYKNFIRQCRIVQGDGLHVGDLREVMVVSGLPAVSSTERLEILDEERHVISFSVVGGDHRLKNYRSVTTLHASDDEGTVVVESYIVDVPPGNTEEETLSFVDTIVRCNLQSLARSTNRQ
- binding: no binding
